Measurements as given in PubChem BioAssay AID2685 (National Center for Advancing Translational Sciences (NCATS), 2010).
Some of the results follow. These are further read-outs of the screen, such as a control signal, another cell line or another target. No call is given for them. Compounds called inactive in the main read-out are mostly missing here. Words in brackets tell the shape of the fitted curve; partial curves, single points and poor fits give uncertain potencies.

Assay: qHTS Assay for Lipid Storage Modulators in Drosophila S3 Cells;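 as to cell number change: cells counted by Cell Tracker Red CMTPX staining in the red channel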
Conditions: BODIPY lipid droplet fluorescence, 18-24 h; for cell number change: measured here: cell count max response, cells fed with added oleic acid
Method in brief: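 Drosophila S3 cells loaded with oleic acid (400 uM, as added) and compounds at several concentrations; lipid droplets imaged by 488-nm laser-scanning cytometry, 500–530 nm intensity and object ratio to cell channel. Percent activity normalized to 20 uM Triacsin C.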

[1] = measured here: cell number channel AC50, cells fed with added oleic acid
[2] = measured here: lipid fluorescence (Fed channel) AC50, cells fed with added oleic acid

Structure (SMILES) | cell number change [%] | AC50 [1] | AC50 [2]
CCN1CCN(C(=O)C(=O)c2c(C)[nH]c3ccccc23)CC1 | 44.7 | 0.00461 µM [rising, full curve, poor fit] | 0.00461 µM [rising, full curve, poor fit]
O=S(=O)(c1ccccc1)c1nc(Nc2ccccc2N2CCOCC2)sc1Cl | -12.2 |  | 0.13 µM [rising, full curve, poor fit]
CCCc1cc(=O)n2[nH]c(-c3cccc(Br)c3)cc2n1 | -41.5 | 20.6 µM [falling, single point] | 10.3 µM [falling, partial curve]
CCOC(=O)c1c(S(=O)(=O)N2CCN(C3CCCCC3)CC2)c(C)n(C)c1C | 5.77 |  | 
Cc1ccc(N2C(=O)C3C4C=CC(CNC(=S)Nc5cccc(Cl)c5)(O4)C3C2=O)cc1 (centres undefined) | -0.247 |  | 2.59 µM [rising, single point]
CC(=O)Nc1ccc2c(c1)nc(C)n2-c1ccccc1 | -4.99 |  | 11.6 µM [rising, partial curve]
Cc1ccc(CNC(=O)COC(=O)c2cnc(C)cn2)cc1 | -35 | 0.651 µM [falling, full curve] | 0.517 µM [falling, single point]
Cn1cc(S(=O)(=O)Nc2ccc(Br)cc2F)c(=O)n(C)c1=O |  |  | 10.3 µM [rising, single point]
CCCCNC(=O)c1c(C)cc(=O)oc1C | -174 | 29.1 µM [falling, partial curve] | 
C[n+]1cccc(C2C(C#N)=C(N)Oc3c2ccc2ccccc32)c1 (centres undefined) | 3.42 |  | 
O=c1c2ccccc2nc2ccc(N3CCOCC3)nn12 | -24.7 |  | 23.1 µM [falling, single point]
CC(C)CN(C(=O)CSc1nc2ccccc2o1)c1c(N)n(Cc2ccccc2)c(=O)[nH]c1=O | -24.8 |  | 13 µM [falling, partial curve, poor fit]
COc1cc(NC(=O)c2cccs2)c(C(=O)OCC(=O)NCc2ccco2)cc1OC | -71.3 | 29.1 µM [falling, single point] | 
CCCCCc1ccc(OCCC[n+]2ccccc2)c(CCCCC)c1 | -70 | 29.1 µM [falling, single point] | 11.6 µM [falling, partial curve]
CCN(CC)S(=O)(=O)c1ccc(N2CCOCC2)c(NC(=O)CNCCc2ccccc2)c1 | 28.4 |  | 1.46 µM [rising, partial curve, poor fit]
Cc1cc(=O)oc2c3c(cc(OCC(=O)N[C@@H](Cc4ccccc4)C(=O)O)c12)OC(C)(C)CC3 | 32 | 11.6 µM [rising, partial curve, poor fit] | 
O=C(c1ccccc1)c1cnc(Nc2ccc(Cl)c(Cl)c2)s1 | 22.7 |  | 8.2 µM [rising, partial curve, poor fit]
COc1ccccc1CNC(=O)CSC1=NCCS1 |  | 0.184 µM [rising, full curve] | 
O=C1CCC(C(=O)NCc2ccc3c(c2)OCO3)N1 (centres undefined) | -9.33 |  | 20.6 µM [falling, single point]

Structure (SMILES) | cell number change [%] | AC50 [1] | AC50 [2]
O=C(Nc1sc2c(c1C(=O)O)CCC2)c1ccccc1Cl | 6.2 |  | 29.1 µM [rising, single point]
O=C(Nc1nc2ccc(F)cc2s1)C1CCN(S(=O)(=O)c2cc([N+](=O)[O-])ccc2Cl)CC1 | -28 |  | 4.11 µM [falling, single point]
COc1cc(OC)c(C(=O)Nc2ccc(S(=O)(=O)N3CCCCC3)cc2)cc1OC |  |  | 0.326 µM [falling, full curve]
CCn1c(SCc2ccc(C(=O)Nc3cc(C)cc(C)c3)cc2)nnc1-c1ccncc1 | 15.7 | 0.146 µM [rising, full curve, poor fit] | 0.411 µM [rising, full curve]
CN(CCc1ccccc1)C(=O)CCc1nnc(Cc2ccc3c(c2)OCO3)o1 | 22.8 | 0.00517 µM [rising, full curve, poor fit] | 
Cc1[nH]c(=O)c(C(=O)c2ccccc2O)cc1C(=O)O | -29.6 |  | 
Cc1c(CCC(=O)O)c(=O)oc2cc3occ(-c4ccc(Br)cc4)c3cc12 | -7.04 | 0.291 µM [rising, partial curve, poor fit] | 
CSCCC(NC(=O)COc1ccccc1)C(=O)OCCOc1ccc(C)cc1 (centres undefined) | 5.76 |  | 2.59 µM [rising, single point]
COc1ccc2nc(SCc3cccnc3)c(C#N)cc2c1 | -18.5 |  | 
COc1cc(/C=C2\C(=O)ON=C2c2ccccc2)cc(OC)c1OC | 55.9 |  | 
CCc1nnc(NC(=O)CCC(=O)Nc2ccc(OC)cc2OC)s1 | 11 |  | 0.13 µM [rising, full curve, poor fit]
O=C1CC(=O)NC(SCC(=O)Nc2ccccc2[N+](=O)[O-])=N1 | 10.9 |  | 29.1 µM [falling, partial curve, poor fit]
Nn1cc(-c2ccccc2)nc1SCC(=O)Nc1cccc(S(N)(=O)=O)c1 |  |  | 2.06 µM [rising, partial curve]
COc1ccc(CN(C)CC(=O)Nc2sc3c(c2C#N)CCC3)cc1OC | 20.4 | 0.259 µM [rising, full curve, poor fit] | 18.4 µM [rising, partial curve]
O=C(CN1CCN(c2ncccn2)CC1)NCc1ccccc1 | 12.5 | 6.51 µM [rising, single point] | 
CN(N=Nc1ccc([N+](=O)[O-])cc1)c1ccccc1 | 32.6 | 5.17 µM [rising, full curve, poor fit] | 8.2 µM [rising, partial curve]
CCN1CCN(C(c2cc3cccc(C)c3[nH]c2=O)c2nnnn2Cc2ccccc2)CC1 (centres undefined) | -10.8 | 0.00461 µM [falling, full curve, poor fit] | 32.6 µM [rising, single point]
CCOc1ccc(C(=S)NC2CCCCC2)cc1OC | -16.9 |  | 
Cc1cc(C)c[n+](-c2nc([O-])sc2C=O)c1 | -5.5 |  | 2.91 µM [falling, partial curve, poor fit]

Reprinted from the results shown for reference:
Structure (SMILES) | cell number change [%] | AC50 [1] | AC50 [2]
C[n+]1cccc(C2C(C#N)=C(N)Oc3c2ccc2ccccc32)c1 (centres undefined) | 3.42 |  | 
O=c1c2ccccc2nc2ccc(N3CCOCC3)nn12 | -24.7 |  | 23.1 µM [falling, single point]
